# Test results: the supplement of paper PMC12823440, “Inhibitors supercharge kinase turnover through native proteolytic circuits” (Nature, 2025)
# Sequences of proteins named here, by UniProt entry; tags and fusion partners are left off. A change or cut given only in a name is not applied to a line headed by its entry.
# UniProt O15530: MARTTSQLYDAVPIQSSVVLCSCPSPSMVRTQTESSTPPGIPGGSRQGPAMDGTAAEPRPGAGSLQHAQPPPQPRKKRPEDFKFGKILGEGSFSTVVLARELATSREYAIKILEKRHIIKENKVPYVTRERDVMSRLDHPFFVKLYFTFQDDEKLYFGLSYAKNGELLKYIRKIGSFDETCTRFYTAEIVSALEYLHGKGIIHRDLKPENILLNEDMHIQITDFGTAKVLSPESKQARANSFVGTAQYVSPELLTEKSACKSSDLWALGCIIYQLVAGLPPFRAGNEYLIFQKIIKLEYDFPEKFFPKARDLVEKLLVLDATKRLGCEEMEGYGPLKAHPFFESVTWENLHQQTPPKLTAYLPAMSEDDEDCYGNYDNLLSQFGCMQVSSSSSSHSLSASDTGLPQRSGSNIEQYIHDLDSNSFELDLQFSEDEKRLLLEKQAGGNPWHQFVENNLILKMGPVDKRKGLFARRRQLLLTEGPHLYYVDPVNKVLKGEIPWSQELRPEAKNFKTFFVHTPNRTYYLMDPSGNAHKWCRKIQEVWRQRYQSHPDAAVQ
# UniProt Q9UBF8: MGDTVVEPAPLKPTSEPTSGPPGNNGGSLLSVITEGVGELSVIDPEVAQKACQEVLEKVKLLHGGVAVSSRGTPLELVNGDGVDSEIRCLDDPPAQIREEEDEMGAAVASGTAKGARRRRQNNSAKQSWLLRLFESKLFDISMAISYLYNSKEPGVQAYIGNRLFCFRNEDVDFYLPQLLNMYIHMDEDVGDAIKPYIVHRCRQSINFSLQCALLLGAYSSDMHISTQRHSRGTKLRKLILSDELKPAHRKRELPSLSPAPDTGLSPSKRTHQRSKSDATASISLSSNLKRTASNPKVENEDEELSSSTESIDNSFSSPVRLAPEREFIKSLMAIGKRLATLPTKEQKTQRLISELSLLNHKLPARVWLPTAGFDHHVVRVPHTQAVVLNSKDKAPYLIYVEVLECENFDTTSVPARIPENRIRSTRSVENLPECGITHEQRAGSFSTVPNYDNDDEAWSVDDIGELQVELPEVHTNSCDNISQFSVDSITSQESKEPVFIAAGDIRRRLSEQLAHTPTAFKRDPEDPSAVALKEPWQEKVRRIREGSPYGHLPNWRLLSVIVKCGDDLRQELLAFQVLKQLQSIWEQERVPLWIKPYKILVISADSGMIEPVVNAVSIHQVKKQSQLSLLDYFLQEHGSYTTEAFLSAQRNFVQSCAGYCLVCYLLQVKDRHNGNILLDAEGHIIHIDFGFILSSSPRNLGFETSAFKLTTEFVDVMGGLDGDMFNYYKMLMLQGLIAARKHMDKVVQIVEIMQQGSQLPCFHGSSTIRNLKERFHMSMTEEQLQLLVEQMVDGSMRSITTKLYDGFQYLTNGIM
# UniProt P53350, whole entry: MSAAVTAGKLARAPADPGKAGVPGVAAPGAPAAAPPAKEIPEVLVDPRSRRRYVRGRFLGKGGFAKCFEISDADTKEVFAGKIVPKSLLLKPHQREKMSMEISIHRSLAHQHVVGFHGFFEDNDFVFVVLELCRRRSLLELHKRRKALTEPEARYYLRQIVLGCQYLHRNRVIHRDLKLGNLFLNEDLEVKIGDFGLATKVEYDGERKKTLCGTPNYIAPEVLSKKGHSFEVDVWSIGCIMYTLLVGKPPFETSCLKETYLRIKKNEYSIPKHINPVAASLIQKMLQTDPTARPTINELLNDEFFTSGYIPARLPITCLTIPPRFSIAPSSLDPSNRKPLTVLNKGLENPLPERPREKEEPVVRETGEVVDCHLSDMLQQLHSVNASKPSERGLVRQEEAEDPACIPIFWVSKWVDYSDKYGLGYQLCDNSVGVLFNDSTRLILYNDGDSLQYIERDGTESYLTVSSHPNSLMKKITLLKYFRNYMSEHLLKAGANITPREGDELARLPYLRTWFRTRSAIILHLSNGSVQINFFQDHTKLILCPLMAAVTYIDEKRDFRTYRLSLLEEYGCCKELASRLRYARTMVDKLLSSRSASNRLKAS
# UniProt Q13131: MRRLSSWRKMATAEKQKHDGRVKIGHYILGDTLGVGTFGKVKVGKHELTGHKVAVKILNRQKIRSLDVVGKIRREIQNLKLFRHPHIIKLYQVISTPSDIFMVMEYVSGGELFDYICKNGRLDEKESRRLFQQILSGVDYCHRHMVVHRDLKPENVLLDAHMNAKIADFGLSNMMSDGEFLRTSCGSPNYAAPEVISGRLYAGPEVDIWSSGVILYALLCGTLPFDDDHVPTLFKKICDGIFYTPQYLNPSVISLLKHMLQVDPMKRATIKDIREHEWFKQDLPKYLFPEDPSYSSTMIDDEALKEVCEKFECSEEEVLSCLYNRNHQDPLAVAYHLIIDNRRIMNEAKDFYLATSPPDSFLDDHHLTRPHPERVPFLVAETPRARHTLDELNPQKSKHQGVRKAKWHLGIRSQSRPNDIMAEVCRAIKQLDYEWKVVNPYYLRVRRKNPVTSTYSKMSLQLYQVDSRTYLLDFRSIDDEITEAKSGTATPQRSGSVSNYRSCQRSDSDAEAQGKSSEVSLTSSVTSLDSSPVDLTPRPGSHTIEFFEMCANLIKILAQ
# UniProt Q14289, whole entry, looked up: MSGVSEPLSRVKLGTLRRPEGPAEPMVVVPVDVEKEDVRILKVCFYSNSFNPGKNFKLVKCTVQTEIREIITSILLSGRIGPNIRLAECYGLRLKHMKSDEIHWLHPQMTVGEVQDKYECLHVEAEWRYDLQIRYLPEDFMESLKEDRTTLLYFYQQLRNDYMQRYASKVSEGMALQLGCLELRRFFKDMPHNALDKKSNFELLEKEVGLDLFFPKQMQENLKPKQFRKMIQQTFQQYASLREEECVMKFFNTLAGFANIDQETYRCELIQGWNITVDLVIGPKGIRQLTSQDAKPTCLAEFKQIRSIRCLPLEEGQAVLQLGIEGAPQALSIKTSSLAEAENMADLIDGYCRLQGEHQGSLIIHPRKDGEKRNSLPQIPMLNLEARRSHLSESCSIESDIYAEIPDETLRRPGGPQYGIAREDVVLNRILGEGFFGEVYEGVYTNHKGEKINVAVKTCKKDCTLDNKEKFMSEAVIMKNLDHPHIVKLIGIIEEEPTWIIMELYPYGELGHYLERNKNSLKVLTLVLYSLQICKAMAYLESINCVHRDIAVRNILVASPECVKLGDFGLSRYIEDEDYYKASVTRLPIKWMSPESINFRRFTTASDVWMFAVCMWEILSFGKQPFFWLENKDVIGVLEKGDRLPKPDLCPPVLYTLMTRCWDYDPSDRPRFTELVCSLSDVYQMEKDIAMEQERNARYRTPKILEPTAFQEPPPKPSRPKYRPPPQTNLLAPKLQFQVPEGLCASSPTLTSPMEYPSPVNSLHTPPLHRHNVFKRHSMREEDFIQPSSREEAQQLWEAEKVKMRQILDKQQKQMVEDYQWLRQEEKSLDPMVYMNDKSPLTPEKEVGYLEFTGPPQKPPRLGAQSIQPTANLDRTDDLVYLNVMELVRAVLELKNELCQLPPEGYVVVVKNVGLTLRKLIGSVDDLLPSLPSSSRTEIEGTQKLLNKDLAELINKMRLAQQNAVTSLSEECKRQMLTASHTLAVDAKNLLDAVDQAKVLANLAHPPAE
# UniProt P07949, whole entry, looked up: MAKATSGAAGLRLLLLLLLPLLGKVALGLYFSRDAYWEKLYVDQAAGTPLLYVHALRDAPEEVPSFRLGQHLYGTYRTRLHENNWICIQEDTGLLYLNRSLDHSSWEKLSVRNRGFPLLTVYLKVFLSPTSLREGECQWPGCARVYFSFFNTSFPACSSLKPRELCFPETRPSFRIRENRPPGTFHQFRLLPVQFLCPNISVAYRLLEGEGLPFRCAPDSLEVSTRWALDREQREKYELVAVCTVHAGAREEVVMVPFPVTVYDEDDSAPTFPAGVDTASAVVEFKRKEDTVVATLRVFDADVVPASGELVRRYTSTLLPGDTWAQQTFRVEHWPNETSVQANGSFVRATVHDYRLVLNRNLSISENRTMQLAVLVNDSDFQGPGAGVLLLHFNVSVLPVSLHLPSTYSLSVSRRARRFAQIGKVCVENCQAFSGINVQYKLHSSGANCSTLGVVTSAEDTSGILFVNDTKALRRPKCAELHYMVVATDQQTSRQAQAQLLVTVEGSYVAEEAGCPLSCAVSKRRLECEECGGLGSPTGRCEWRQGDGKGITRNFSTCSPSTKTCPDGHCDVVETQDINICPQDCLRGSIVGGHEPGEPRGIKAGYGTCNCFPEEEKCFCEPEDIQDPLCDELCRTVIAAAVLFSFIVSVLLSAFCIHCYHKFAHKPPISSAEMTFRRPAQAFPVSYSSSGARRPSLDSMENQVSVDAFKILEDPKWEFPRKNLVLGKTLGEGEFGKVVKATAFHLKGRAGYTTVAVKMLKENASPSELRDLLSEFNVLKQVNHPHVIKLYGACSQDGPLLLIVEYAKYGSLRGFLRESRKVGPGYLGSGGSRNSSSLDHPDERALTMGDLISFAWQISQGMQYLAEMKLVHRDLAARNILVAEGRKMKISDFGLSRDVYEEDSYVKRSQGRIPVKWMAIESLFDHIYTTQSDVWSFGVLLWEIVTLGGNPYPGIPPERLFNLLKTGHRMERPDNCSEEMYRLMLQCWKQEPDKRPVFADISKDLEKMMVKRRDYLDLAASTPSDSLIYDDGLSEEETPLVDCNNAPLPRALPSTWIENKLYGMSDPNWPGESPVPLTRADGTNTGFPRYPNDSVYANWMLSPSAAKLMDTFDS
# UniProt P07949, whole entry M918T, looked up: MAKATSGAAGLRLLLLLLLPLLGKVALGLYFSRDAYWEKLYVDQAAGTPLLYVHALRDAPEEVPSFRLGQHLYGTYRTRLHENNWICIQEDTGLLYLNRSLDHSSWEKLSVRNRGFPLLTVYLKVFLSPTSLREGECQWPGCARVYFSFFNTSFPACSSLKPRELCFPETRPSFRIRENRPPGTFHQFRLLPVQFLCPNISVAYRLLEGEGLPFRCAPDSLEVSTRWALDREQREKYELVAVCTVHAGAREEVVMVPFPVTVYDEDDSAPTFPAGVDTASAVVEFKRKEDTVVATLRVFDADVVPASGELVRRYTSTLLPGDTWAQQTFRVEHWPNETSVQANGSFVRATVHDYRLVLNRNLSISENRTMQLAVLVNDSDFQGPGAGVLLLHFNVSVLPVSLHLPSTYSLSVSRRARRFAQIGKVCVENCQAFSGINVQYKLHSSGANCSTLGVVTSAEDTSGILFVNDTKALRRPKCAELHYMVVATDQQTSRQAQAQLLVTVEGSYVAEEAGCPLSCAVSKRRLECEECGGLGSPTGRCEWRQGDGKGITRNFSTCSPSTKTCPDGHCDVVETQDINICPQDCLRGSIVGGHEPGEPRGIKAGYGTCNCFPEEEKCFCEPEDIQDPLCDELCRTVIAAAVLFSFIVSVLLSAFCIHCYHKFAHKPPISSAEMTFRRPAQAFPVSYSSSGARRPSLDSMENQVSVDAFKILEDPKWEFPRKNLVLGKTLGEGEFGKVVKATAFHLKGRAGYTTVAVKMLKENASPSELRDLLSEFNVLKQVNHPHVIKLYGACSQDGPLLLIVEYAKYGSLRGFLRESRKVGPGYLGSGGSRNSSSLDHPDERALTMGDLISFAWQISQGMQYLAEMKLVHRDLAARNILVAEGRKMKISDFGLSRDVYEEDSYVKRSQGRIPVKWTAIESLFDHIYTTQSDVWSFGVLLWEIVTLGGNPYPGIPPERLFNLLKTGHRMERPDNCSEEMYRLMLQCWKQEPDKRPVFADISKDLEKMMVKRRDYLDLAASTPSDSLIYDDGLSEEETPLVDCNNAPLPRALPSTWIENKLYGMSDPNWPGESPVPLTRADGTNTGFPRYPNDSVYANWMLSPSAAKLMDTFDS
# UniProt Q9NYA1, whole entry: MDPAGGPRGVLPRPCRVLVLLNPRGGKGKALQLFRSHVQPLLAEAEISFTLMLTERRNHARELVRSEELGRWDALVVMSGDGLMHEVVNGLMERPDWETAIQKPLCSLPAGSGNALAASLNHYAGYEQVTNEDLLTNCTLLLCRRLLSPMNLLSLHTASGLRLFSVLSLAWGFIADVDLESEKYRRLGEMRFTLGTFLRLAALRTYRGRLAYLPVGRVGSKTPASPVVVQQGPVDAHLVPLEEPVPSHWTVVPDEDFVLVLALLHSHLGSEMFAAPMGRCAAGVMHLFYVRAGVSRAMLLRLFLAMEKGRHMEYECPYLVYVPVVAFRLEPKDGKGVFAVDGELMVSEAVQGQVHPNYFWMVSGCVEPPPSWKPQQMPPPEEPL
# UniProt Q9Y6E0: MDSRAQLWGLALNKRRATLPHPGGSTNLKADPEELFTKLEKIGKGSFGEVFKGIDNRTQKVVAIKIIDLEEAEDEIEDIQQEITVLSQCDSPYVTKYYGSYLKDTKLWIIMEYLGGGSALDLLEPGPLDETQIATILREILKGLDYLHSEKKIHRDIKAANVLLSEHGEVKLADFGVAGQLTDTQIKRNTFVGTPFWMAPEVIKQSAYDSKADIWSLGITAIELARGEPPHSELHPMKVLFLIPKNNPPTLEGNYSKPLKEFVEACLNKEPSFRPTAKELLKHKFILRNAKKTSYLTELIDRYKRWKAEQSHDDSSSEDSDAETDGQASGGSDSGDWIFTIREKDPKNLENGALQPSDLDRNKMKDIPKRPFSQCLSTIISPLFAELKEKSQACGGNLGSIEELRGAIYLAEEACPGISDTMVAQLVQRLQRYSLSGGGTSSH
# The list shows a part of the results. The calls rarely recur for the same compound in another form.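 Kinases were expressed as nanoluciferase fusions in K562 cells and luminescence was read every 4 h between 2 and 18 h as percent of control, DMSO set to 100% and a positive control to 0%. A time point counts as decreased when the signal drops significantly (2 sigma). The hit call is the authors' own, does not follow from the count of time points alone, and its rule is not shown.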
# Legend:
# Assay in all cases: kinase-Nluc reporter destabilization hit call (1 = scored as downregulated) (binary); higher = compound decreases kinase abundance
# Conditions in all cases: K562; 2-18 h
# PDPK1 = PDPK1 (UniProt O15530)
# PIK4CA = PIK4CA (UniProt P42356)
# PIK4CB = PIK4CB (UniProt Q9UBF8)
# PLK1 = PLK1 (UniProt P53350)
# PRKAA1 = PRKAA1 (UniProt Q13131)
# PRKCA = PRKCA (UniProt P17252)
# PTK2 = PTK2 (UniProt Q05397)
# PTK2B = PTK2B (UniProt Q14289)
# RAF1 = RAF1 (UniProt P04049)
# [1] = molecular target: RAF1_S257L (clone: RAF1_mut) (UniProt P04049)
# RET = RET (UniProt P07949)
# [2] = molecular target: RET_M918T (clone: RET_mut) (UniProt P07949)
# RIOK1 = RIOK1 (UniProt Q9BRS2)
# RIPK1 = RIPK1 (UniProt Q13546)
# RIPK2 = RIPK2 (UniProt O43353)
# ROR2 = ROR2 (UniProt Q01974)
# RPS6KA1 = RPS6KA1 (UniProt Q15418)
# SPHK1 = SPHK1 (UniProt Q9NYA1)
# SRC = SRC (UniProt P12931)
# STK24 = STK24 (UniProt Q9Y6E0)
SMILES,kinase-Nluc reporter destabilization hit call (PDPK1),kinase-Nluc reporter destabilization hit call (PIK4CA),kinase-Nluc reporter destabilization hit call (PIK4CB),kinase-Nluc reporter destabilization hit call (PLK1),kinase-Nluc reporter destabilization hit call (PRKAA1),kinase-Nluc reporter destabilization hit call (PRKCA),kinase-Nluc reporter destabilization hit call (PTK2),kinase-Nluc reporter destabilization hit call (PTK2B),kinase-Nluc reporter destabilization hit call (RAF1),kinase-Nluc reporter destabilization hit call [1],kinase-Nluc reporter destabilization hit call (RET),kinase-Nluc reporter destabilization hit call [2],kinase-Nluc reporter destabilization hit call (RIOK1),kinase-Nluc reporter destabilization hit call (RIPK1),kinase-Nluc reporter destabilization hit call (RIPK2),kinase-Nluc reporter destabilization hit call (ROR2),kinase-Nluc reporter destabilization hit call (RPS6KA1),kinase-Nluc reporter destabilization hit call (SPHK1),kinase-Nluc reporter destabilization hit call (SRC),kinase-Nluc reporter destabilization hit call (STK24)
O=C(CNc1cccc(Cl)c1)NC1CCCN(c2ncnc3[nH]ccc23)C1 (stereo not given) (10 µM),inactive: 0,inactive: 0,inactive: 0,inactive: 0,inactive: 0,inactive: 0,inactive: 0,inactive: 0,inactive: 0,inactive: 0,inactive: 0,inactive: 0,inactive: 0,inactive: 0,inactive: 0,inactive: 0,inactive: 0,inactive: 0,inactive: 0,inactive: 0
C[C@H](NC(=O)[C@H]1NCC[C@@H]1O)c1ccc(-c2noc(CCC3CCCC3)n2)cc1 (10 µM),inactive: 0,inactive: 0,inactive: 0,inactive: 0,inactive: 0,inactive: 0,inactive: 0,inactive: 0,inactive: 0,inactive: 0,inactive: 0,inactive: 0,inactive: 0,inactive: 0,inactive: 0,inactive: 0,inactive: 0,inactive: 0,inactive: 0,inactive: 0
Oc1cc(O)c2c(c1)OC1(c3ccc(O)c(O)c3)Oc3cc(O)c4c(c3C2C1O)OC(c1ccc(O)c(O)c1)C(O)C4 (stereo not given) [Procyanidin A1] (10 µM),inactive: 0,inactive: 0,inactive: 0,inactive: 0,inactive: 0,inactive: 0,inactive: 0,inactive: 0,inactive: 0,inactive: 0,inactive: 0,inactive: 0,inactive: 0,inactive: 0,inactive: 0,inactive: 0,inactive: 0,inactive: 0,inactive: 0,inactive: 0
Cc1ccc2c(Nc3cccc(Cl)c3F)nccc2c1NC(=O)c1csc2c(N)ncnc12 [Belvarafenib] (10 µM),inactive: 0,inactive: 0,inactive: 0,inactive: 0,inactive: 0,inactive: 0,inactive: 0,inactive: 0,inactive: 0,inactive: 0,inactive: 0,inactive: 0,inactive: 0,inactive: 0,inactive: 0,inactive: 0,inactive: 0,inactive: 0,inactive: 0,inactive: 0
COc1cc(N(C)CCN(C)C)c(N)cc1Nc1nccc(-c2cn(C)c3ccccc23)n1 [Mutated EGFR-IN-1] (10 µM),inactive: 0,inactive: 0,inactive: 0,inactive: 0,inactive: 0,inactive: 0,inactive: 0,inactive: 0,inactive: 0,active: 1,inactive: 0,inactive: 0,inactive: 0,inactive: 0,inactive: 0,inactive: 0,inactive: 0,inactive: 0,inactive: 0,inactive: 0
O[C@@H]1CO[C@H]2[C@@H]1OC[C@H]2Oc1nc2nc(-c3ccc(-c4ccccc4)cc3)c(Cl)cc2[nH]1 (10 µM),inactive: 0,inactive: 0,inactive: 0,inactive: 0,inactive: 0,inactive: 0,inactive: 0,inactive: 0,inactive: 0,inactive: 0,inactive: 0,inactive: 0,inactive: 0,inactive: 0,inactive: 0,inactive: 0,inactive: 0,inactive: 0,inactive: 0,inactive: 0
Cc1ccc(NC(=O)c2ccnc(C(F)(F)F)c2)cc1-c1cc(OCCO)nc(N2CCOCC2)c1 (10 µM),inactive: 0,inactive: 0,inactive: 0,inactive: 0,inactive: 0,inactive: 0,inactive: 0,inactive: 0,inactive: 0,inactive: 0,inactive: 0,inactive: 0,inactive: 0,inactive: 0,inactive: 0,inactive: 0,inactive: 0,inactive: 0,inactive: 0,inactive: 0
O=C(O)c1cc(=O)c2c(OCC(O)COc3cccc4oc(C(=O)O)cc(=O)c34)cccc2o1 [Cromolyn (sodium)] (10 µM),inactive: 0,inactive: 0,inactive: 0,inactive: 0,inactive: 0,inactive: 0,inactive: 0,inactive: 0,inactive: 0,inactive: 0,inactive: 0,inactive: 0,inactive: 0,inactive: 0,inactive: 0,inactive: 0,inactive: 0,inactive: 0,inactive: 0,inactive: 0
C=CC(=O)N1C(=O)CC(c2ccc(F)cc2)Sc2ccccc21 (stereo not drawn) [GSK-3β inhibitor 3] (10 µM),inactive: 0,inactive: 0,inactive: 0,inactive: 0,inactive: 0,inactive: 0,inactive: 0,inactive: 0,inactive: 0,inactive: 0,inactive: 0,inactive: 0,inactive: 0,inactive: 0,inactive: 0,inactive: 0,inactive: 0,inactive: 0,inactive: 0,inactive: 0
COc1cc(-c2cn[nH]c2)ccc1C(=O)Nc1ccc2c(c1)CCNCC2 (10 µM),inactive: 0,inactive: 0,inactive: 0,inactive: 0,inactive: 0,inactive: 0,inactive: 0,inactive: 0,inactive: 0,inactive: 0,inactive: 0,inactive: 0,inactive: 0,inactive: 0,inactive: 0,inactive: 0,inactive: 0,inactive: 0,inactive: 0,inactive: 0
C[C@H](Nc1ncnc2[nH]cnc12)c1cc2ccc(F)cc2nc1-c1ccccn1 (10 µM),inactive: 0,inactive: 0,inactive: 0,inactive: 0,inactive: 0,inactive: 0,inactive: 0,inactive: 0,inactive: 0,inactive: 0,inactive: 0,inactive: 0,inactive: 0,inactive: 0,inactive: 0,inactive: 0,inactive: 0,inactive: 0,inactive: 0,inactive: 0

# Taken from above:
# kinase-Nluc reporter destabilization hit call (STK24) with Cc1ccc2c(Nc3cccc(Cl)c3F)nccc2c1NC(=O)c1csc2c(N)ncnc12 [Belvarafenib] (10 µM) is entered as inactive: 0
# kinase-Nluc reporter destabilization hit call (PTK2) with Oc1cc(O)c2c(c1)OC1(c3ccc(O)c(O)c3)Oc3cc(O)c4c(c3C2C1O)OC(c1ccc(O)c(O)c1)C(O)C4 (stereo not given) [Procyanidin A1] (10 µM) is entered as inactive: 0
